Test results: patent publication US20060058346A1, “Novel enantiomers of etrahydroisoquinoline derivatives and theirpharmaceutically acceptable salts, their preparations and pharmaceutical compositions” (priority 2002, published 2006)
Some of these results come from one statement about several compounds together. Some ranges recur; such a range may be that of the whole group of compounds.

Tested on: rat with DIC and MOF induced by endotoxin
Experiment: Endotoxin-induced DIC and multiple organ failure in rat
Format: in vivo
Settings: LPS 15 mg/kg i.v. 4 hours; S versus R
Protocol: Rats (Crj:CD(SD); 250±20 g) were used to test sample. Before the compound was administered, the rat was not fed. The compound was orally administered one time per day for two days in an amount of 10 mg˜25 mg/10 ml/kg/day. Distilled water (control group and LPS group) or enantiomer was administered to the rat repeatedly. After one hour, rat was anaesthetized with intramuscular injection of 50 mg/kg of pentobarbital. […] Thereafter, 50 mg/kg of pentobarbital was injected at 2 hour to the rat by intramuscular injection. Therefore, the rat was anaesthetized for all the experiment and operation.
The blood (2 ml for FDP and 6 ml for other variables) was collected from abdominal artery using a plastic syringe, into glass tube containing soy bean trypsin inhibitor and Bothrops atrox venom to measure FDP and into plastic tube containing 2.2% sodium citrate (1/10, volume/volume). The aggregated blood was centrifuged at 1200×g for 5 minutes two times. Before measurement of FDP, the supernatant was stored at freezer for at least 12 hours. Citrated blood was centrifuged at 2000×g for 30 minutes. The supernatant was used for measurement of fibrinogen and PT or APTT time. The aggregated blood collected in glass tube was disposed at the room temperature for 30 min, centrifuged to give the serum for measurement of AST and BUN.
Platelet from total citrated blood was counted by using automatic platelet counter (PLT-4, Texas International Lab.) PT or APTT time was measured by Beckton Dickenson BBL Fibrosystem (Coctkeysville, USA). FDP analysis was accomplished by using Thrombo-wellcotest kit. The said analysis was accomplished by up and down dilution method semi-quantitatively. Measurement of AST and BUN was accomplished by using Autobiochemical analyzer (Hitach 747, Japan).

Oc1ccc(C[C@@H]2NCCc3cc(O)c(O)cc32)cc1 [Formula 3, (S)-6,7-Dihydroxy-1-(p-hydroxyphenylmethyl)-1,2,3,4-tetrahydroisoquinoline]
APTT time, shorter than with R-configuration: 18˜30% | PT time, shorter than with R-configuration: 8-16% | serum level of fibrinogen, as high as with R-configuration: 20˜120%
